# Source: PubChem BioAssay AID493014 (National Center for Advancing Translational Sciences (NCATS), 2011)
# Some of the results follow. The main result of the screen is listed elsewhere. These columns were measured beside it and carry no call. Compounds called inactive in the main read-out are mostly missing here. The note in brackets gives the kind of curve behind each potency; many fits are weak.
# Test: qHTS Assay to Find Inhibitors of Chronic Active B-Cell Receptor Signaling
# Conditions: ABC-DLBCL IkBa-CBG/CBR reporter, luminescence ratio (green luciferase fused to IkBa over red control in TMD8 lymphoma cells), 4 h
# Method in brief: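 Doxycycline induced both beetle luciferases in TMD8 lymphoma cells; IKK-driven degradation limits the IkappaBalpha-fused green signal, while red luminescence normalises for cell number and nonspecific effects. Compounds tested up to 46 uM, 4 hrs.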
# [1] = measured here: CBR red luminescence, cell number
# [2] = measured here: IkBa-CBG green luminescence
Structure (SMILES),AC50 [1],AC50 [2]
CN(C(=O)c1c[nH]c(=O)cc1C(F)(F)F)c1ccc(Cl)cc1,"2.51 µM [rising, full curve, poor fit]",
Cc1cccc(NC(=O)C2CCN(c3ncnc4c3nc3n4CCCCC3)CC2)n1,"10 µM [falling, partial curve]",
CC(C)NC(=O)c1onc(CSc2cccc(Cl)c2)c1C(=O)O,"35.5 µM [falling, single point]",
O=C(COC(=O)C12CC3CC(CC(C3)C1)C2)Nc1ncc(Cl)cc1Cl,"29.1 µM [rising, single point]",
O=C(Cc1c[nH]c2ccccc12)OCCOC(=O)Cc1c[nH]c2ccccc12,"18.4 µM [falling, single point]",
COc1ccc2cc(C(C)c3nc4ccccc4c(=O)n3N)ccc2c1 (stereo not drawn),"29.1 µM [falling, single point]",
NC(=O)CC1(CC(=O)O)CCCCC1,"0.58 µM [rising, full curve]",
O=C(CCCC(=O)c1ccc(F)cc1)c1ccc(F)cc1,"14.1 µM [rising, single point]",
COc1cccc(NC(=O)COc2ccc3c(c2)CCC3)c1,"10 µM [falling, partial curve, poor fit]",
Cc1cc(C(=O)COC(=O)c2ccc(O)cc2O)c(C)n1C(C)C,"29.1 µM [falling, single point]",
C[C@H]1NC(=O)[C@@]2(C)[C@@H](c3ccccc3)[C@H]3COc4ccccc4[C@H]3N2C1=O,"29.1 µM [falling, single point]",
COCCCNC(=O)C[C@H]1C[C@H](C(=O)N2CCCCC2)[C@@]2(CCc3ccccc3)c3[nH]c4cc(-c5ccco5)ccc4c3CCN2C1=O,"23.1 µM [falling, single point]",
COc1ccc(/C=N/N=C2/C(=O)Nc3ccccc32)cc1O,"15.8 µM [falling, partial curve]",
COc1ccc(C(=O)NCCS(=O)(=O)N(C)C2CCCCC2)cc1,"9.2 µM [rising, partial curve, poor fit]",
CC(=O)c1cccc(NC(=O)C(=O)Nc2cccc3ccccc23)c1,"6.31 µM [falling, partial curve, poor fit]",
COC(=O)c1cc(NC(=O)CSc2ncn[nH]2)ccc1Cl,"6.31 µM [falling, full curve]",
CC(C)OCCCNC(=O)c1ccc(NC(=O)C2=CSCCO2)cc1,"0.112 µM [rising, full curve, poor fit]",
COc1ccc(-c2nc(CS(=O)CC(=O)NCc3cccnc3)c(C)o2)cc1OC (stereo not drawn),"3.66 µM [rising, partial curve, poor fit]",
COc1cc(OC)cc(C(=O)NC(=S)N2CCN(c3ccc(C(F)(F)F)cc3[N+](=O)[O-])CC2)c1,"0.158 µM [falling, full curve, poor fit]",
CCOC(=O)c1ccc(NC(=S)Nc2cccc(N)n2)cc1,"35.5 µM [falling, single point]",
CCCCC1=C(C(=O)OCC)C(C(=O)OCC)Oc2ccccc21 (stereo not drawn),"18.4 µM [rising, partial curve, poor fit]",

# Given with bars between the fields: entries from further up
Structure (SMILES) | AC50 [1] | AC50 [2]
CN(C(=O)c1c[nH]c(=O)cc1C(F)(F)F)c1ccc(Cl)cc1 | 2.51 µM [rising, full curve, poor fit] | 
Cc1cccc(NC(=O)C2CCN(c3ncnc4c3nc3n4CCCCC3)CC2)n1 | 10 µM [falling, partial curve] | 
CC(C)NC(=O)c1onc(CSc2cccc(Cl)c2)c1C(=O)O | 35.5 µM [falling, single point] | 
O=C(COC(=O)C12CC3CC(CC(C3)C1)C2)Nc1ncc(Cl)cc1Cl | 29.1 µM [rising, single point] | 
NC(=O)CC1(CC(=O)O)CCCCC1 | 0.58 µM [rising, full curve] | 
O=C(CCCC(=O)c1ccc(F)cc1)c1ccc(F)cc1 | 14.1 µM [rising, single point] | 
COc1cccc(NC(=O)COc2ccc3c(c2)CCC3)c1 | 10 µM [falling, partial curve, poor fit] | 
Cc1cc(C(=O)COC(=O)c2ccc(O)cc2O)c(C)n1C(C)C | 29.1 µM [falling, single point] | 
COCCCNC(=O)C[C@H]1C[C@H](C(=O)N2CCCCC2)[C@@]2(CCc3ccccc3)c3[nH]c4cc(-c5ccco5)ccc4c3CCN2C1=O | 23.1 µM [falling, single point] | 
COc1ccc(/C=N/N=C2/C(=O)Nc3ccccc32)cc1O | 15.8 µM [falling, partial curve] | 
CC(=O)c1cccc(NC(=O)C(=O)Nc2cccc3ccccc23)c1 | 6.31 µM [falling, partial curve, poor fit] | 
COC(=O)c1cc(NC(=O)CSc2ncn[nH]2)ccc1Cl | 6.31 µM [falling, full curve] | 
CC(C)OCCCNC(=O)c1ccc(NC(=O)C2=CSCCO2)cc1 | 0.112 µM [rising, full curve, poor fit] | 
COc1ccc(-c2nc(CS(=O)CC(=O)NCc3cccnc3)c(C)o2)cc1OC (stereo not drawn) | 3.66 µM [rising, partial curve, poor fit] | 
COc1cc(OC)cc(C(=O)NC(=S)N2CCN(c3ccc(C(F)(F)F)cc3[N+](=O)[O-])CC2)c1 | 0.158 µM [falling, full curve, poor fit] | 
CCOC(=O)c1ccc(NC(=S)Nc2cccc(N)n2)cc1 | 35.5 µM [falling, single point] | 

# More results:

Structure (SMILES),AC50 [1],AC50 [2]
Cc1ccc(CN(CC(=O)NCc2ccccn2)S(=O)(=O)c2ccccc2)cc1,"35.5 µM [falling, partial curve, poor fit]",
O=C(CCCN1C(=O)/C(=C/c2ccccc2Cl)SC1=S)Nc1cccnc1,"2.82 µM [falling, full curve]",
NC(=O)c1ccc(-n2nnnc2Oc2ccccc2)cc1,"23.1 µM [falling, single point]","29.1 µM [rising, partial curve, poor fit]"
Cc1ccc(CNC(=O)CCNS(=O)(=O)c2ccc(C)cc2)cc1,"20.6 µM [rising, single point]",
COc1cccc([C@@H]2Oc3ccc(OC)cc3C(=O)[C@H]2OC(=O)Nc2cc(OC)c(OC)c(OC)c2)c1,"2.59 µM [rising, full curve, poor fit]",
Clc1ccc(C2=Nn3c(nnc3-c3n[nH]c4c3CCC4)SC2)cc1,,"6.31 µM [falling, partial curve, poor fit]"
Cc1ccnc(NC(=O)C2CCN(S(=O)(=O)c3c(C)c(C)cc(C)c3C)CC2)c1,"35.5 µM [falling, single point]",
CCC(=O)N(C)CCc1cc2c(c(OC)c1/C=N/NC(=O)[C@H]1C[C@@H]1c1ccccc1)OCO2,"22.4 µM [falling, single point]",
CC(OC(=O)/C=C/c1ccco1)C(=O)Nc1cccc([N+](=O)[O-])c1 (stereo not drawn),"29.1 µM [rising, single point]",
COc1cc2c(cc1OC)CN(C(=O)c1nn(Cc3ccccc3)c(=O)c3ccccc13)CC2,"9.2 µM [falling, partial curve]",
COc1cccc(CNC(=O)Cn2c(=O)n3nc(-c4cccc(C)c4)nc3c3ccccc32)c1,"12.6 µM [rising, partial curve, poor fit]",
O=C(CCC(=O)OCC(=O)c1ccc(-c2ccccc2)cc1)Nc1cccc(Cl)c1,"17.8 µM [rising, single point]",
CCC(C)(C)NC(=O)C(c1ccc(O)cc1)N(CCOC)C(=O)CCC(=O)Nc1nccs1 (stereo not drawn),"7.08 µM [rising, full curve, poor fit]",
CC(=O)N1N=C(c2cccs2)CC1c1ccc(C)o1 (stereo not drawn),"20 µM [rising, partial curve, poor fit]",
CSc1ccc(-c2nnn(Cc3ccc(Br)cc3)n2)cc1,"1.16 µM [rising, full curve, poor fit]",
CC(C)CCNC(=O)NC(=O)CSc1nnc(COc2ccccc2Cl)o1,"3.66 µM [rising, single point]",
O=c1oc2ccc3ccccc3c2c2c1SC(C(F)(F)F)C2 (stereo not drawn),"20.6 µM [rising, single point]",
CC(C)c1[nH]nc2c1C1(CCN(Cc3ccccc3)CC1)C(C#N)=C(N)O2,"29.1 µM [falling, single point]",
Cc1cc2occ(CC(=O)N(C)CC(=O)Nc3ccccc3C(F)(F)F)c2cc1C,"25.9 µM [rising, partial curve]",
CCn1nnc2cc(C(=O)Nc3cc(OC)cc(OC)c3)ccc21,"6.51 µM [falling, partial curve, poor fit]",
c1ccc(Oc2nc(-c3ccccn3)nc3ccccc23)cc1,"17.8 µM [falling, single point]",

Structure (SMILES),AC50 [1],AC50 [2]
CCOC(=O)CSc1cccc2cccnc12,"29.1 µM [falling, single point]",
Cc1ccccc1NC(=S)NC1CCCC1,"14.1 µM [rising, partial curve, poor fit]",
COc1cc2[nH]c(=S)nc(NC3CCCC3)c2cc1OC,"35.5 µM [falling, single point]",
Cc1nc2cc(NC(=O)C3COc4ccccc4O3)ccc2s1 (stereo not drawn),"0.126 µM [rising, full curve, poor fit]",
O=C(Nc1cccc(Cl)c1)OCc1ccccn1,"22.4 µM [falling, single point]",
Cc1ccccc1/C=C\c1nc2ccccc2c(=O)[nH]1,"5.01 µM [falling, full curve]",
S=C(NCCc1ccccc1)Nc1ccc(Cl)cc1,"1.84 µM [rising, partial curve, poor fit]",
Cc1nn(-c2ccccc2)c2c1C(c1ccc([N+](=O)[O-])cc1)N1C(=N2)C(=O)Nc2ccccc21 (stereo not drawn),"20.6 µM [falling, single point]",
CC1=C(C(=O)Nc2ccccc2)C(c2ccc(Cl)cc2)n2c(s/c(=C/c3cccc(OCC(=O)O)c3)c2=O)=N1 (stereo not drawn),"25.1 µM [falling, single point]",
COc1cccc(N2CCN(c3nc(C)cc(C)c3C#N)CC2)c1,"3.55 µM [rising, single point]",
O=C(Nc1nc(-c2ccccc2)cs1)c1ccc(S(=O)(=O)N2CCc3ccccc32)cc1,"1.16 µM [falling, full curve]",
CSc1ccccc1OCc1cc(C(=O)N(C)Cc2cnccn2)no1,"7.08 µM [falling, partial curve, poor fit]",
CN1CCN(CC(=O)Nc2nc3ccccc3s2)CC1,"5.01 µM [rising, single point]",
Nc1nonc1C(=O)N/N=C/c1ccc(-c2cccc(C(=O)O)c2)o1,"7.94 µM [falling, partial curve]",
Cc1cc(-c2cccs2)nc(-n2cccc2)n1,"0.2 µM [rising, full curve, poor fit]",
Cc1ccc(-c2nc(C)sc2CC(=O)OCC(=O)Nc2c(F)cccc2F)cc1,"0.517 µM [rising, full curve, poor fit]",
C[C@H]1O[C@@H](O[C@H]2[C@@H](O)C[C@H](O[C@H]3[C@@H](O)C[C@H](O[C@H]4CC[C@@]5(C)[C@H](CC[C@@H]6[C@@H]5C[C@@H](O)[C@]5(C)[C@@H](C7=CC(=O)OC7)CC[C@]65O)C4)O[C@@H]3C)O[C@@H]2C)C[C@H](O)[C@@H]1O,"0.447 µM [falling, full curve, poor fit]",
Cc1cccc(N2CCN(C(=O)c3ccc(NS(=O)(=O)c4c(C)noc4C)cc3)CC2)c1C,"25.9 µM [falling, single point]",
CCOCCCNC(=O)C1CC(=O)N(CCc2ccccc2)C1 (stereo not drawn),"35.5 µM [rising, single point]",
Cc1sc(NC(=O)Nc2ccccc2)c(C(N)=O)c1C,"14.1 µM [falling, single point]",
